Results published in paper PMC4961739, “Regulation of post-Golgi LH3 trafficking is essential for collagen homeostasis” (Nature Communications, 2016).
Results are given in words; binding and its absence hold for the method and conditions named. Binding seen in cells or lysates may run through a third protein. Binding calls can cover weak binding; strength is not graded here. Tags and fused reporters may be left off the sequences shown.

Assays:
[1] = target: myc-tagged VIPAR C-terminal construct C+ (human); experiment: co-IP; HEK293 cells transfected 48 h; NP-40 lysis buffer (0.3% NP-40, 10 mM HEPES pH 8.5, 10 mM KCl, 5 mM MgCl2, 5 mM DTT); anti-myc or anti-HA antibody on Dynabeads Protein G, overnight at 4 °C; western blot
[2] = target: myc-tagged VIPAR C-terminal construct C- (human); experiment: as above

B1: HA-tagged VPS33B (protein, UniProt Q9H267 1-617)
chain: MAFPHRPDAPELPDFSMLKRLARDQLIYLLEQLPGKKDLFIEADLMSPLDRIANVSILKQHEVDKLYKVENKPALSSNEQLCFLVRPRIKNMRYIASLVNADKLAGRTRKYKVIFSPQKFYACEMVLEEEGIYGDVSCDEWAFSLLPLDVDLLSMELPEFFRDYFLEGDQRWINTVAQALHLLSTLYGPFPNCYGIGRCAKMAYELWRNLEEEEDGETKGRRPEIGHIFLLDRDVDFVTALCSQVVYEGLVDDTFRIKCGSVDFGPEVTSSDKSLKVLLNAEDKVFNEIRNEHFSNVFGFLSQKARNLQAQYDRRRGMDIKQMKNFVSQELKGLKQEHRLLSLHIGACESIMKKKTKQDFQELIKTEHALLEGFNIRESTSYIEEHIDRQVSPIESLRLMCLLSITENGLIPKDYRSLKTQYLQSYGPEHLLTFSNLRRAGLLTEQAPGDTLTAVESKVSKLVTDKAAGKITDAFSSLAKRSNFRAISKKLNLIPRVDGEYDLKVPRDMAYVFGGAYVPLSCRIIEQVLERRSWQGLDEVVRLLNCSDFAFTDMTKEDKASSESLRLILVVFLGGCTFSEISALRFLGREKGYRFIFLTTAVTNSARLMEAMSEVKA
In the case of B1, the binding [1] is reported as “binds” and the binding [2] is reported as “binds”.
